Test results reported in article PMC4829694.

The chains behind the UniProt entries cited, without tags or fusion partners. Where a name states a change or a piece, a line headed by the entry shows the natural chain unless it says otherwise.
UniProt P23772: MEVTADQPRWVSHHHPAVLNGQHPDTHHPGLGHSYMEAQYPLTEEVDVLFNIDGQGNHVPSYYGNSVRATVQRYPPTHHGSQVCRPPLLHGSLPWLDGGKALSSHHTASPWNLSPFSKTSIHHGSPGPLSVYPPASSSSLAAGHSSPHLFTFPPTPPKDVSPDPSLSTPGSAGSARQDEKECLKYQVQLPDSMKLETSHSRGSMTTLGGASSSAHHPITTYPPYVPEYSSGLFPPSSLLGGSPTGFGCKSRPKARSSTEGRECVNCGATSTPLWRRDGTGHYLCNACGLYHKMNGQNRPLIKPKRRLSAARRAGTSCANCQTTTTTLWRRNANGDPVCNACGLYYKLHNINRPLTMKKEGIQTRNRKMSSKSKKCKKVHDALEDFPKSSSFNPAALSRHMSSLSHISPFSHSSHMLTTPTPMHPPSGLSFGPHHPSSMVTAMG
UniProt Q6PDQ2: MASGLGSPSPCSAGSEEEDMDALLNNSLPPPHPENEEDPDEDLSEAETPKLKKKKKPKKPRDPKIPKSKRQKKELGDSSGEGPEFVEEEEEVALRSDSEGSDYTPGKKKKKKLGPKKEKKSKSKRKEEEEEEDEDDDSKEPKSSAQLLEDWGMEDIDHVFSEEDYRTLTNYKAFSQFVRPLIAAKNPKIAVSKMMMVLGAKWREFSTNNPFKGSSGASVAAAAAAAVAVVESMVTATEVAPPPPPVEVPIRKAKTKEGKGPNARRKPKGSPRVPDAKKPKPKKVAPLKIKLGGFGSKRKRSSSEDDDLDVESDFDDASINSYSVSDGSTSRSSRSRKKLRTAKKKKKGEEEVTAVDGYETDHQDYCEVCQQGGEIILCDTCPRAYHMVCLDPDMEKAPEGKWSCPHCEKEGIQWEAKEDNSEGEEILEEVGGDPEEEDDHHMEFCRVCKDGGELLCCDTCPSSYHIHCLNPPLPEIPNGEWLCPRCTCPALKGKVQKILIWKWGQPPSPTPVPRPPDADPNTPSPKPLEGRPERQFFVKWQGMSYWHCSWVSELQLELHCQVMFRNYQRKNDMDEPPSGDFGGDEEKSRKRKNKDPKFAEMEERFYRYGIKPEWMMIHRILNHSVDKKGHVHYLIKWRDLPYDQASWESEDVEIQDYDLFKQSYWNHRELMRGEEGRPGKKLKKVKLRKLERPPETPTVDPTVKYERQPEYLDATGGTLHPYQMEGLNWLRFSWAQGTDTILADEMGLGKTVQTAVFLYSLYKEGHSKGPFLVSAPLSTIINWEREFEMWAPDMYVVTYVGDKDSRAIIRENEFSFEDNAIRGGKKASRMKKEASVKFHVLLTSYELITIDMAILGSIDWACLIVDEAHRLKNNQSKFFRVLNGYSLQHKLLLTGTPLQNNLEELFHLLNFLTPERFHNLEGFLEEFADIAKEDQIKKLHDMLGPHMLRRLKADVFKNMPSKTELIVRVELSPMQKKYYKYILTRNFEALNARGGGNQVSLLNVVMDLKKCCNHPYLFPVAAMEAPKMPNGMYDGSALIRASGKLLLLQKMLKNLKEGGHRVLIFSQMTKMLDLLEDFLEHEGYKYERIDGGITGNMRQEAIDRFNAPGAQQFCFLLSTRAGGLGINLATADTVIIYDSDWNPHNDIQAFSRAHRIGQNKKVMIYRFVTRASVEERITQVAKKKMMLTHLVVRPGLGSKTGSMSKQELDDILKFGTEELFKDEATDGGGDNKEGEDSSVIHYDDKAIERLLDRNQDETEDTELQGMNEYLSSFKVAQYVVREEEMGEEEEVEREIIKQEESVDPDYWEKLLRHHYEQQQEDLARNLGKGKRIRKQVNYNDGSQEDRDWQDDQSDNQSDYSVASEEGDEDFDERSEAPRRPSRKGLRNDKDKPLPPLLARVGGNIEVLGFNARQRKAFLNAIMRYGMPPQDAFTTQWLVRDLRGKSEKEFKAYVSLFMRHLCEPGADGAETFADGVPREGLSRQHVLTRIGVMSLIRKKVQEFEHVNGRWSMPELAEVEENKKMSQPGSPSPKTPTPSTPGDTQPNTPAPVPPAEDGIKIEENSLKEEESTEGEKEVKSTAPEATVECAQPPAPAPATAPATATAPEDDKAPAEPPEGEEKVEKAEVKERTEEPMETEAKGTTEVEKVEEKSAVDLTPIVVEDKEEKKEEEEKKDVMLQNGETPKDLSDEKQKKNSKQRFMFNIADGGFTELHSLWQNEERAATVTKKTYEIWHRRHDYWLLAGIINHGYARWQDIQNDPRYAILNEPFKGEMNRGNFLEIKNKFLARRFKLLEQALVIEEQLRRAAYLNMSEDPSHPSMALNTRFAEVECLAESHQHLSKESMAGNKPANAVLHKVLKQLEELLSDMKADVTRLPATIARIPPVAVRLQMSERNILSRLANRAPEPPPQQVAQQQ

Target: Flag-tagged Gata3 dNCF (deletion of both zinc fingers) (UniProt P23772)
Test: co-IP; 293T cells co-transfected with Flag-tagged Gata3 (WT or mutant) and the Myc- or HA-tagged partner; RIPA lysates; IP with anti-Flag mAb, IB with anti-Myc or anti-HA

Question: “Myc-tagged Chd4 (from UniProt Q6PDQ2 1-1915)” was tested. Which binding did it give?
Answer: binds weakly

These are yes or no findings as the source states them, for the method shown. Binding seen in cells or lysates may run through a third protein. A result given as binding can be weak or reduced; the word gives no strength.
